# For at least one entry, the source does not settle the construct or the ends of the probe. The direction of at least one scale is not stated here.
# Chains of the proteins cited; added tags and fusions are not shown. Residues count along the entry.
# UniProt Q9BRS8, 86-177: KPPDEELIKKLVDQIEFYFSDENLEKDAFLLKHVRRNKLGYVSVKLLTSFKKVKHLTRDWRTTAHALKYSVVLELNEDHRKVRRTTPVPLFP
# Target: LARP6 LA-domain (UniProt Q9BRS8)
# Assay: binding assay
# Conditions: G10 substituted with 2-aminopurine; 2AP fluorescence intensity change at saturating LA-domain; p<0.0001; purified recombinant protein; label: 2-aminopurine at position 10
sequence,measurement,value
CCACAAAGAGUCUACAUGUCUAGGGUCUAGACAUGUUCAGCUUUGUGG [fluorescent collagen a1(I) 5'SL],binding signal (fold fluorescence increase),2

# From patent US20230313296
